Measured values as given in doi:10.1101/2022.03.18.484870 (bioRxiv, 2022).

Assays:
[1] = target: T1, TST-uS2c (158) nascent chain in stalled ribosome nascent chain complex (Arabidopsis thaliana) (UniProt P56797); experiment: co-sedimentation
T1 sequence: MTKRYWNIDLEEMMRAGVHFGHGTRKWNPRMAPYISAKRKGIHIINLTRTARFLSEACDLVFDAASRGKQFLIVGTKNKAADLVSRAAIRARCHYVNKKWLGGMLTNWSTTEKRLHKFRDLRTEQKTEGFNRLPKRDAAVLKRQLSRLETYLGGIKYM

[2] = target: T1, TST-uS2c (158) nascent chain in stalled ribosome nascent chain complex (Arabidopsis thaliana); experiment: pull-down

Substance	binding [1]	binding [2]
chloroplast ribosomal subunit uL4	binds	binds
chloroplast ribosomal subunit uL24	–	binds
plastidic trigger factor (TIG1)	–	binds
stromal suppressor of tic40 protein 2 (STIC2), endogenous pea protein	–	no binding

No constants are given. Whether binding was seen depends on the method and setting. In cells and extracts the contact can be indirect. A result given as binding can be weak or reduced; the word gives no strength.
